The results are deposited in PubChem (AID1159506; NCATS, 2015).

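Genome-wide siRNA knockdown in TC32 Ewing sarcoma cells, comparing luciferase light from an NR0B1-promoter reporter with a CMV-promoter reporter 48 hours after transfection. Each siRNA was applied at 20 nM. A z-score of the log NR0B1-over-CMV signal, less the median of siRNAs with the same seed; more negative means a stronger specific loss of the NR0B1 reporter.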

This is part of the screen; most of the strongest results are not listed here. Sequences are the guide (antisense) strand, without overhang.

siRNA: AUAGGGCACCGUCUGUUCG
gene: EDN3
seed-corrected z-score: -0.305

siRNA: AAGGUGUUUAGAUGCGAGC
gene: LIG4
seed-corrected z-score: -0.8021

siRNA: UUCUUUUCCACUCCGUUUU
gene: DZIP1L
seed-corrected z-score: 0.00317

siRNA: UAUUGUCCAACCUUAGCCA
gene: NDUFA11
seed-corrected z-score: -0.8742

siRNA: UUCCGGUCUUCCAACUUGC
gene: XPO5
seed-corrected z-score: 0.1492

siRNA: UUGUCGGUAAAUGUGGUCG
gene: NR5A2
seed-corrected z-score: -0.2601

siRNA: AUACCUGUCAUCCCAGUGC
gene: PIK3CD-AS1
seed-corrected z-score: 0.09117

siRNA: UUCUCAGACAGCUUCUCCG
gene: EFNA1
seed-corrected z-score: 1.244

siRNA: AUGAGUAUCAGUUCAGCAC
gene: KRTAP7-1
seed-corrected z-score: 0.4516

siRNA: AACUGAAUUCAUUCCACUG
gene: CDC42SE2
seed-corrected z-score: -0.5209

siRNA: AGUAAUACAGUGACAAUGG
gene: CNIH4
seed-corrected z-score: -0.4058

siRNA: AAUAUGAAGUCGAUAAUCC
gene: NDUFB2
seed-corrected z-score: 0.1363

siRNA: UUGAAGUUGAGCAGCAUCU
gene: KXD1
seed-corrected z-score: -1.266

siRNA: UGAAGAUCUUCCAAUAUUU
gene: SPACA7
seed-corrected z-score: 1.484

siRNA: AAGGUAAAUGGUGCGAGGC
gene: PFKFB2
seed-corrected z-score: -1.846

siRNA: AGGACAAACAGCAUGGAGC
gene: NHLRC4
seed-corrected z-score: 0.4789

siRNA: UUACUGUUAAUCCUAAUGG
gene: PHYH
seed-corrected z-score: -1.074

siRNA: AAAGCGGUUUGCUCCAUCU
gene: LYL1
seed-corrected z-score: -0.1107

siRNA: AUACCAUUGUUUUAAGUCC
gene: PDE3B
seed-corrected z-score: 0.2874

siRNA: UGACCAUUACUGAUGAGGG
gene: CYP1A1
seed-corrected z-score: -0.6077

siRNA: UUCCUCUCCACAGCGAAUG
gene: TPST1
seed-corrected z-score: -0.0714

siRNA: ACUCAUAUCAUCAAUUCUC
gene: HSBP1
seed-corrected z-score: -0.1894

siRNA: UGAGCUCCACGAAUUGCUG
gene: STX4
seed-corrected z-score: 1.154

siRNA: UGAUCGAAAGCAAUGACGG
gene: TMEM52B
seed-corrected z-score: 0.03056

siRNA: UGCUGUACUGGUCUUCUCG
gene: FNDC3B
seed-corrected z-score: 0.2429

siRNA: UCGCAGGUCAGUAAUCUUC
gene: RARA
seed-corrected z-score: -0.06946

siRNA: AAGGGUACGAGUACAUUCC
gene: HEPN1
seed-corrected z-score: -0.05602

siRNA: AAAUCUUUAGGACAAAGUG
gene: GTDC1
seed-corrected z-score: 0.2069

siRNA: AUGAUUUCCGUGAUCGUCC
gene: HACD2
seed-corrected z-score: 0.2138

siRNA: AAACCUGUACCAAUGUCCC
gene: CYP11B2
seed-corrected z-score: -1.768

siRNA: UGUAUGCUUGGUCAUGUGG
gene: ZNF142
seed-corrected z-score: -1.777

siRNA: UUUUCUAUCUGGUAGAGCC
gene: HUNK
seed-corrected z-score: 0.09433

siRNA: AAGGACAUCAGUUUGUACG
gene: AP4B1
seed-corrected z-score: -0.9617

siRNA: AGCUGCAUAGUUAAUGUGC
gene: LOC644135
seed-corrected z-score: 0.5481

siRNA: UGAGGUACGUGUUCAGAUC
gene: PICK1
seed-corrected z-score: -0.671

siRNA: UCACUUCGGAGCUUAUGCC
gene: THRAP3P1
seed-corrected z-score: -0.5781

siRNA: UUUUUAUACACCUCUUGCC
gene: FLJ22763
seed-corrected z-score: 0.2792

siRNA: UGCUUGAUAGGGCAAGAUC
gene: DBP
seed-corrected z-score: 0.2291

siRNA: UGACAUCCGAUCUCGAUUC
gene: HTT
seed-corrected z-score: 0.2028

siRNA: UGAAUUUCCGAUGUGACUU
gene: KIF2B
seed-corrected z-score: -0.4252

siRNA: UAAAUGUCGUUCUCGGUCG
gene: HNRNPF
seed-corrected z-score: 0.05046

siRNA: AUGUUGAUCACCAUAAUUU
gene: LOC646976
seed-corrected z-score: 1.74

siRNA: UUCACGGAGAUGUUUAUUC
gene: ANAPC11
seed-corrected z-score: -0.08232

siRNA: UACCUGGAUUGUGAUGGGC
gene: PLXND1
seed-corrected z-score: -0.49

siRNA: AGUUAUUCCAAUACCAUGC
gene: CHEK1
seed-corrected z-score: 1.432

siRNA: UUCCGACUCAGCUUUCUUG
gene: BZRAP1
seed-corrected z-score: -0.3029

siRNA: UUUGGAUAUAUGGGUCUGC
gene: C2orf80
seed-corrected z-score: 0.3421

siRNA: UAAUGGUCGAGAACUCAGG
gene: PLEKHG6
seed-corrected z-score: 0.149

siRNA: UAAUGGUCACUACUAAUCC
gene: OLR1
seed-corrected z-score: 1.047

siRNA: UUUAGUGACAAUGCCCUCC
gene: MCM3
seed-corrected z-score: -0.0784

The first 3 entries again:

AUAGGGCACCGUCUGUUCG against EDN3 gave seed-corrected z-score -0.305.
AAGGUGUUUAGAUGCGAGC against LIG4 gave seed-corrected z-score -0.8021.
UUCUUUUCCACUCCGUUUU against DZIP1L gave seed-corrected z-score 0.00317.